{
  "source": "patent US20230137790A1",
  "about": "“STABLE INJECTABLE EPINEPHRINE FORMULATIONS INCLUDING A METAL-CHELATING AGENT” (Amphastar Pharmaceuticals, Inc., priority 2020, published 2023)",
  "note": "Like-named read-outs stand apart in the source and are kept apart here.",
  "data": [
    {"smiles": "O=C([O-])CN(CCN(CC(=O)[O-])CC(=O)O)CC(=O)O.[Na+].[Na+]", "note": "[EDTA, ethylene diamine tetra-acetate disodium]", "values": [
      {"measurement": "Zinc Bound to EDTA", "setting": "EDTA Concentration Level 1 μg/mL", "result": 0.19, "unit": "µg/mL"},
      {"measurement": "Zinc Bound to EDTA", "setting": "EDTA Concentration Level 2 μg/mL", "result": 0.4, "unit": "µg/mL"},
      {"measurement": "Zinc Bound to EDTA", "setting": "EDTA Concentration Level 4 μg/mL", "result": 0.8, "unit": "µg/mL"},
      {"measurement": "Zinc Bound to EDTA", "setting": "EDTA Concentration Level 8 μg/mL", "result": 1.6, "unit": "µg/mL"},
      {"measurement": "Zinc Bound to EDTA", "setting": "EDTA Concentration Level 10 μg/mL", "result": 1.9, "unit": "µg/mL"},
      {"measurement": "Zinc Bound to EDTA", "setting": "EDTA Concentration Level 20 μg/mL", "result": 3.9, "unit": "µg/mL"}
    ]}
  ]
}
